# Measurements: the supplement of paper PMC12819154, “High-throughput peptide-centric local stability assay extends protein–ligand identification to membrane proteins, tissues and bacteria” (Nature Structural & Molecular Biology, 2025)
# Sequences of proteins named here, by UniProt entry; tags and fusion partners are left off. A change or cut given only in a name is not applied to a line headed by its entry.
# UniProt Q8CHP0: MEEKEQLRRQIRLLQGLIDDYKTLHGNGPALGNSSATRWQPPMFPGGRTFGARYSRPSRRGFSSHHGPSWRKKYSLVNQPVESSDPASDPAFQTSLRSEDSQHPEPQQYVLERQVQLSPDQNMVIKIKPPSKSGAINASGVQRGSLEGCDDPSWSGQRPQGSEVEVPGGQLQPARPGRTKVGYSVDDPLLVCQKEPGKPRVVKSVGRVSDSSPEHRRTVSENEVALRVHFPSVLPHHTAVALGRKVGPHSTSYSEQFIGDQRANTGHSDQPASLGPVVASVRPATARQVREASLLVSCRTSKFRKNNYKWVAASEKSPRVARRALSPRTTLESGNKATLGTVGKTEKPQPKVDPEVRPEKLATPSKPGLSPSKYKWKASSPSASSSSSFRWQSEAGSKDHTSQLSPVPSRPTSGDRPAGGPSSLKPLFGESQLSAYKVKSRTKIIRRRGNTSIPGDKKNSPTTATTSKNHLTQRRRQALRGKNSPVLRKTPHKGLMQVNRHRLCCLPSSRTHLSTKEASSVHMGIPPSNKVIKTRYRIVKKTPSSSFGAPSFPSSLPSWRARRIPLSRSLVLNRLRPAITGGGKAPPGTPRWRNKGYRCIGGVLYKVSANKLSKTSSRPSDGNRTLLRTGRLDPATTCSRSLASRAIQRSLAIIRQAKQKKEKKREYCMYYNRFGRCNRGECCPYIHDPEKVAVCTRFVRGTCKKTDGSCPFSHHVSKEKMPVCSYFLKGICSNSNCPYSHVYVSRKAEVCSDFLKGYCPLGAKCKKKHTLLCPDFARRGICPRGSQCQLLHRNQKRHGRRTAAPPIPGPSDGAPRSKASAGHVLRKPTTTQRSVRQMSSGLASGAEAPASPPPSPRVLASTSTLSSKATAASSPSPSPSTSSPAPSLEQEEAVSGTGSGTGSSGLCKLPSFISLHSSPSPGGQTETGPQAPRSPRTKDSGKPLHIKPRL
# UniProt Q8CFE2: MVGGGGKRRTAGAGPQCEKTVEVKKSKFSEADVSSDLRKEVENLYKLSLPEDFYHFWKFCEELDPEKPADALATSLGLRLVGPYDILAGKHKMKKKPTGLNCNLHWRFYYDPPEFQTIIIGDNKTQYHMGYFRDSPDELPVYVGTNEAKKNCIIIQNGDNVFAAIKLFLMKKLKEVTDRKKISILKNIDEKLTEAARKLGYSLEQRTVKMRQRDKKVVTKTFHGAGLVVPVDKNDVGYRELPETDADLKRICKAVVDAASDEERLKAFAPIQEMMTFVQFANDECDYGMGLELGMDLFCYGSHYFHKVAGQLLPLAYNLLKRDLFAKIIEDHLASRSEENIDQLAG
# UniProt Q8K0H1: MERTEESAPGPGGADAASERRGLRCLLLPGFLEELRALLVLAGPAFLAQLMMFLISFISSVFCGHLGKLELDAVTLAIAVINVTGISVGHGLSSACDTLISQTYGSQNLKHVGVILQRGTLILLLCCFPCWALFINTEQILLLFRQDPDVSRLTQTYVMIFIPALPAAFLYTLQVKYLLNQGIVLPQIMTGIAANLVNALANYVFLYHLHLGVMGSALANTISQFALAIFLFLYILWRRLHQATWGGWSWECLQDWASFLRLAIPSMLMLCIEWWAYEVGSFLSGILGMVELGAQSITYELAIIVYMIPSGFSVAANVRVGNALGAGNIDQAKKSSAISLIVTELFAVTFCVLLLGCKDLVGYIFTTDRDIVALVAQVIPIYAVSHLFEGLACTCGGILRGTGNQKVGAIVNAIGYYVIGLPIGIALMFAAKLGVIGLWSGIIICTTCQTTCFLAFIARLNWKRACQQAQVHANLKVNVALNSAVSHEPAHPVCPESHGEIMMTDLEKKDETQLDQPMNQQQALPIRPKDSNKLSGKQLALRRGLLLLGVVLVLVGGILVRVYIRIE
# UniProt Q8CHU3: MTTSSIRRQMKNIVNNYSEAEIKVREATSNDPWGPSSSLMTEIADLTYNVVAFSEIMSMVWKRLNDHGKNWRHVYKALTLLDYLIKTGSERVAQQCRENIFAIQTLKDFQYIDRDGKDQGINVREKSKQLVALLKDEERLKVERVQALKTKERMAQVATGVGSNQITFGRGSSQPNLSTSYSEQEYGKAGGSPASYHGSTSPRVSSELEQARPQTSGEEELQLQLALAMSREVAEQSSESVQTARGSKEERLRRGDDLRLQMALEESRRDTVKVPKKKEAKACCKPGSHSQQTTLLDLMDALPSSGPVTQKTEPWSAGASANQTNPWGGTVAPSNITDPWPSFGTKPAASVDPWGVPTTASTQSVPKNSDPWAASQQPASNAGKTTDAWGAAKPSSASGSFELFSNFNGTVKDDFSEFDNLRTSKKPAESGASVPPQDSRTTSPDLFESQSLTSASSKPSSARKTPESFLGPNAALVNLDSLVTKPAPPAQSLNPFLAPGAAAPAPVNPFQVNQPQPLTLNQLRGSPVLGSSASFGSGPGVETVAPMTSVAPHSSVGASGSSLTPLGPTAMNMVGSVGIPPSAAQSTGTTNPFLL
# UniProt Q8CGN5: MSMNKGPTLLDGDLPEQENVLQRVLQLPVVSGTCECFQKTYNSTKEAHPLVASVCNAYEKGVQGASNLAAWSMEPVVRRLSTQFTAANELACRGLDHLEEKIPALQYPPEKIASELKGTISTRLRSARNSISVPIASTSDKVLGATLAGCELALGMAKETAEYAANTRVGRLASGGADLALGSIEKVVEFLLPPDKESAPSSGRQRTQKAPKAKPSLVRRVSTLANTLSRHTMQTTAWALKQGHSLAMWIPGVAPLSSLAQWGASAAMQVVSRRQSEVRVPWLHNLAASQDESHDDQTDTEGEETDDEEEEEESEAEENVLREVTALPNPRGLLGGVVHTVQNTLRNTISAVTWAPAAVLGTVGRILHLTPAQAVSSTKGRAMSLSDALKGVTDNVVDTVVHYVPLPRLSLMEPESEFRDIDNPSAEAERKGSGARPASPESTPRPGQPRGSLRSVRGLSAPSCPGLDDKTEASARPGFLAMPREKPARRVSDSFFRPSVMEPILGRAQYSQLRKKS
# UniProt Q8K0C8: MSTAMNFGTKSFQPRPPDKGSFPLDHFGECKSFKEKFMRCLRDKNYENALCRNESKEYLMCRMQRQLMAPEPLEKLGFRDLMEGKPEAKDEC
# UniProt Q8CHT6: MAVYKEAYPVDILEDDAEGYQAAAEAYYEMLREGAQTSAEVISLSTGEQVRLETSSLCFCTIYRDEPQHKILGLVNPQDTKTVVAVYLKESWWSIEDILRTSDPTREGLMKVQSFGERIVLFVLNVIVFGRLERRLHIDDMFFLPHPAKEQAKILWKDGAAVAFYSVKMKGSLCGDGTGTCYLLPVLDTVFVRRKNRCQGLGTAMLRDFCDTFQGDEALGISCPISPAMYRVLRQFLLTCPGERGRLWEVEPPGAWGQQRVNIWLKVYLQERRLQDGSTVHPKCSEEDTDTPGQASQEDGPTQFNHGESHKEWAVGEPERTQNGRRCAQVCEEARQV
# UniProt Q8JZU0: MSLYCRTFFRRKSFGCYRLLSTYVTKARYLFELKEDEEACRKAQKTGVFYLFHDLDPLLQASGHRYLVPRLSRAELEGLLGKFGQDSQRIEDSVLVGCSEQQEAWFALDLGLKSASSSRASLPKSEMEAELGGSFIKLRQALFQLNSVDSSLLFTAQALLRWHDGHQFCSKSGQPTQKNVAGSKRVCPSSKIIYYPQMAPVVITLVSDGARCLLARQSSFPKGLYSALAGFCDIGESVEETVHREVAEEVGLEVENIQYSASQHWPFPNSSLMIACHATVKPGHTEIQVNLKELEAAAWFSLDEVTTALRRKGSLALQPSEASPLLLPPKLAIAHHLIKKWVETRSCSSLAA
# UniProt Q8CHK3: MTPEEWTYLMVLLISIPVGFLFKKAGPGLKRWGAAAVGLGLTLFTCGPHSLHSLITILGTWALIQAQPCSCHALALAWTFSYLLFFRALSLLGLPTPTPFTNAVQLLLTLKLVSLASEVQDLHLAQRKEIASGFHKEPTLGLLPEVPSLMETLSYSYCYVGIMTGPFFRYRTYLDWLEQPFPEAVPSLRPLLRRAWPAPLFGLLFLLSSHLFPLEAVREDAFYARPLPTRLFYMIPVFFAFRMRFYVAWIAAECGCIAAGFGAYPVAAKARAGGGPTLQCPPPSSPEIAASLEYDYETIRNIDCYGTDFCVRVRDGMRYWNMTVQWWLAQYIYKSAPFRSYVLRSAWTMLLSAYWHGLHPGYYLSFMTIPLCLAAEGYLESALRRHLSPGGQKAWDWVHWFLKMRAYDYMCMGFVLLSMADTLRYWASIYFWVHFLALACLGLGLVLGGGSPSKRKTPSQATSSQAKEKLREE
# UniProt Q8CJ19: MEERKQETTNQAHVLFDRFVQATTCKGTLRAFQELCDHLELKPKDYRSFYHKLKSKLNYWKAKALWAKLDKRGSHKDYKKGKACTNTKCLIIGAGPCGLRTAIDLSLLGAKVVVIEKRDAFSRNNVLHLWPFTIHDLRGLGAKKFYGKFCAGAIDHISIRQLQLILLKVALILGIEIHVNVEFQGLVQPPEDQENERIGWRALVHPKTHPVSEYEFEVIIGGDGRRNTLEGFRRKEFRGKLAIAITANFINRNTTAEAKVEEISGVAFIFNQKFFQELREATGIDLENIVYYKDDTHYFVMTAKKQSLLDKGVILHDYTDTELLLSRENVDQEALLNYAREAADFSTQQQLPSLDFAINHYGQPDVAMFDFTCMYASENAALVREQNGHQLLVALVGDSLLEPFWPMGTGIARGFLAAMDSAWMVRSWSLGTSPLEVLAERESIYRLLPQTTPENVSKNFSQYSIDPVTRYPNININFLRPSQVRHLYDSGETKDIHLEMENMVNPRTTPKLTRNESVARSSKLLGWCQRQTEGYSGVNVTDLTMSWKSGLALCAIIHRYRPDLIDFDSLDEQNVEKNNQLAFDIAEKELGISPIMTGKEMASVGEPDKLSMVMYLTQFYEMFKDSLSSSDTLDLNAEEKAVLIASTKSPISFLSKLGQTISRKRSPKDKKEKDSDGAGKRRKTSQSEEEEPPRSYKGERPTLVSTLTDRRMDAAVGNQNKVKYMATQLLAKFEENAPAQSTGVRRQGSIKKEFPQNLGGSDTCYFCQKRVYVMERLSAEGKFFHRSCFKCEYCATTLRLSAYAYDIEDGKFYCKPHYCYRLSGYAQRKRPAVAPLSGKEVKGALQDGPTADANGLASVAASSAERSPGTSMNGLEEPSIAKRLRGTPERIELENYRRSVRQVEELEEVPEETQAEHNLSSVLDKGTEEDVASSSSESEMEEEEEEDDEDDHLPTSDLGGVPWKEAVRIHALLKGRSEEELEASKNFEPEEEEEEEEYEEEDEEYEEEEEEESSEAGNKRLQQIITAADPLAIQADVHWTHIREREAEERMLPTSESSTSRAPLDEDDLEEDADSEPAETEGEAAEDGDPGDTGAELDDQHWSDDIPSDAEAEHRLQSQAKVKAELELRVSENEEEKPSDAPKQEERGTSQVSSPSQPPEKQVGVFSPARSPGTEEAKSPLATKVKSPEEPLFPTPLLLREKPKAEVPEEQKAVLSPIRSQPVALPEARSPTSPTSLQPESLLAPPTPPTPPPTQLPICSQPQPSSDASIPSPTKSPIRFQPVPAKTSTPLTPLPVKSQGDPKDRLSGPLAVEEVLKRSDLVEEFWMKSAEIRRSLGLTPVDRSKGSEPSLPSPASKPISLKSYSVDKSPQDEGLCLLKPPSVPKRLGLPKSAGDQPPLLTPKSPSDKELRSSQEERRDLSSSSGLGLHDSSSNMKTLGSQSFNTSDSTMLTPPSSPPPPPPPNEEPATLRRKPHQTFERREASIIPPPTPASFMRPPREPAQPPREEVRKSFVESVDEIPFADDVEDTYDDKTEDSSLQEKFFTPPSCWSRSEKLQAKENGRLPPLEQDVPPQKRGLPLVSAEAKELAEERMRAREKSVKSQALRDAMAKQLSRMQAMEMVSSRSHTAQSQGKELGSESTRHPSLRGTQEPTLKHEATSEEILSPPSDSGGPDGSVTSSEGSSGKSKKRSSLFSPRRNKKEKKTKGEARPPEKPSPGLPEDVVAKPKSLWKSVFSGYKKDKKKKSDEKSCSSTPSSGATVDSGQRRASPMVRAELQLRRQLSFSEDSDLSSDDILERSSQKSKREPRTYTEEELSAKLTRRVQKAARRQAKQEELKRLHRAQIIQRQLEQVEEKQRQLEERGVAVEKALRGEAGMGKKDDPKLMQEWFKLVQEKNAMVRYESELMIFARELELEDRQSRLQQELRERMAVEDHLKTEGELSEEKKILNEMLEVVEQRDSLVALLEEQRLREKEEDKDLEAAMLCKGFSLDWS
# Some of the results follow. Most values lie at the level of the controls, where differences are scatter.
# Compound: CN[C@@H]1C[C@H]2O[C@@](C)([C@@H]1OC)n1c3ccccc3c3c4c(c5c6ccccc6n2c5c31)C(=O)NC4 [staurosporine]
# Assay: log2 fold change of tryptic peptide abundance, ligand vs vehicle (limited proteolysis) (log2 ratio); higher = more trypsin-susceptible (destabilized)
# Conditions: ligand concentration: 20 uM; sample: mouse liver crude lysate; replicate design: treated separately
row,Target,log2 fold change
1,"UniProt Q8CGP5 (peptide sequence: KTESHHKPK, peptide start residue: 120)",0.0427
2,"UniProt Q8CHP0 (peptide sequence: VDPEVRPEK, peptide start residue: 352)",-0.124
3,"UniProt Q8CFE2 (peptide sequence: TAGAGPQCEK, peptide start residue: 10)",0.281
4,"UniProt Q8CH25 (peptide sequence: DVQDAIAQSPEKEAK, peptide start residue: 281)",-0.491
5,"UniProt Q8K0H1 (peptide sequence: KDETQLDQPMNQQQALPIRPK, peptide start residue: 509)",-0.212
6,"UniProt Q8CHU3 (peptide sequence: LQMALEESR, peptide start residue: 260)",-0.0162
7,"UniProt Q8CGN5 (peptide sequence: GLLGGVVHTVQNTLR, peptide start residue: 332)",-0.199
8,"UniProt Q8K0C8 (peptide sequence: GSFPLDHFGECK, peptide start residue: 20)",-0.411
9,"UniProt Q8JZP9 (peptide sequence: RLEEEFLANAR, peptide start residue: 523)",-0.4
10,"UniProt Q8CHT6 (peptide sequence: QFLLTCPGER, peptide start residue: 235)",0.153
11,"UniProt Q8JZU0 (peptide sequence: WHDGHQFCSK, peptide start residue: 162)",0.507
12,"UniProt Q8CHK3 (peptide sequence: EIASGFHK, peptide start residue: 129)",0.169
13,"UniProt Q8CJ19 (peptide sequence: YESELMIFAR, peptide start residue: 1901)",-0.341

# Some of the entries so far, bar-delimited:
row | Target | log2 fold change
1 | UniProt Q8CGP5 (peptide sequence: KTESHHKPK, peptide start residue: 120) | 0.0427
2 | UniProt Q8CHP0 (peptide sequence: VDPEVRPEK, peptide start residue: 352) | -0.124
